Reference: paper doi:10.1101/2025.11.26.690747
Where two headings read alike, the source gives them in different places. These are yes or no findings as the source states them, for the method shown. Binding seen in cells or lysates may run through a third protein. A yes stands for co-enrichment or nearness to the bait. Other partners may have been found. Where a sequence is shown, tags or fusion partners need not be part of it.

Tests used:
[1] = target: T1, PfBDP1-HA-DD (P. falciparum) (UniProt Q8IJ72); test: affinity purification with mass spectrometry
T1 sequence: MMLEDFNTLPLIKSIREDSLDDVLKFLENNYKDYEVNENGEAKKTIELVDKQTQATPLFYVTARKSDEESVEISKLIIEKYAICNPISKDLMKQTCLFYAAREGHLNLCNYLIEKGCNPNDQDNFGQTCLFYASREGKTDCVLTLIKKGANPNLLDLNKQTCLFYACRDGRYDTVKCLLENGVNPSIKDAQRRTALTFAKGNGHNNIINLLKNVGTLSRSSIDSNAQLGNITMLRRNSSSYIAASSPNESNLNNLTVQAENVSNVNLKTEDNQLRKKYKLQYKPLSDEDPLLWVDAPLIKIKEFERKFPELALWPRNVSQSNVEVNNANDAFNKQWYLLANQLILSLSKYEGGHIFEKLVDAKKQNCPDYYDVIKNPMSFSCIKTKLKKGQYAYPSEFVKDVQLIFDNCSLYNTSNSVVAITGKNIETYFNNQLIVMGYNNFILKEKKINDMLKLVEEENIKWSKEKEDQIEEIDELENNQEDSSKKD

[2] = target: T1, PfBDP1-HA-DD (P. falciparum); test: affinity purification with mass spectrometry; remark: listed apart in the source

Chromodomain Protein 1 (PfCHD1) (from UniProt Q8IJG6 1-3328)
binding [1]: binds
binding [2]: binds

PfAP2-I (endogenous, found by mass spectrometry) (P. falciparum (endogenous in parasites))
binding [1]: binds

B1: PfBDP2 (protein, UniProt Q8I5S4 1-1088)
chain: MNDYNNINNQLLIDTSSGMEHITIENNNNCIINNIDNIDYNNKTTNHIIKNNDSIISYKNNNMSSINNLIDIDNNGTSINNEFQQKNYNNNNIISDNKNMNYFSSFSNENTIDDNGNDTNYMNYDDNMNNSEYTNNHNNNHNNNHNNINSNDHNDDNLKNNNQCNSMNITDEYMSDNNISKNNSTSNILEYHINDNNNNNNINFIKKEEIIKNMDDLFIKNVNDIRSFERGILNLTQEEFIYISNKIHFLGFRFIEIPCVKTKNEKRNTYTAISKRHLNEIKNLSCSLSNSIYDAGKRKSKKTFDPFYSKAEFDSKGTYAQHDQKDTKDTNKKKAQTNNNVNNNNNNDYVNEKDIKNANIKEESHNLNSTKGNNKGTNNTYHNNNSIKSQQESDKLTSTSKGVKRSASNKFDDFDNKHNNKNVHGGSTNLGTNNSTPTHNNSNTGKGKGSKNTNSNNKKINEKESMKKRQKTNSYNEDNLMDEYEQHKKTYKKKIYRTKNPWKNYCFKILHKLKKKEIACWFLKPVNPELDGIPNYFNVIKNPMDFETIENKLINNKYNNPFEWQHDVRQIFFNAFTYHKVKNCVWNDAYKLAKEFDKLIKQGNDVKNILKDCTKNINSVYFNMKQYNDLIEHTNNTNNIINHNNISKTITNTSSDDHSGSLSSSSSSSSSISSSNYDDEAYDNVSSVNYNKRDSQMHKNVHGKKSSMYMTSASTNTLKNNLNSNQIYFPHGKNKKNEKMNKSSKYSINNNNNNNNISNKKNIRDNIKNKKDVNSNTLDDDDFEPPNVGTIPEPPGIQKIGINDKGLNNYQVNLLFKNFKRLAPNQRKAALEIIQDDLGILAENHMFDRFFTFDTDLLSIEKQKRIFLYINHMGRINLEHYKSSLISANKVNNSSFSKGKMGQKIVHNKSFIKHGSNNSNINAHYEKRRTNRYVSSSSNSSDSSTSNSSDSSSFSTSSDDSDSDSDSDMDSDSYDKKRKIKRPFPNDKKKELSNKFLEANRRKTLPQYKPVNENRKSLQIRDDVMGMHADFLGSMDSPRNTKNKHRASVSAWPEWKGQVIQQAILTQHKTNVPINKKELIAEGYDAKI
binding [1]: binds
binding [2]: binds

B2: PfBDP7 (protein, UniProt Q8IIC0 1-525)
chain: MADNNLDKNESDSSCINASDEQKSSEEKDNLGEASVVSNVNENNSSFFTKCFSKIVNFGNNTQENNIPVAHEENNNEDREYNTNESNCNRYDDEEDKKVENFDNNNINNNYLKGDGEKNIHEGGDVHTDFNNEEMINAISNYNKNELNLNRGEIYLNDNEYSFISYIILSSEFRFYPIEETKKKKRRDTLKIDDTITITDTKRIKFDNNNNNNNKIEIRKKENVTDIDADKGSNNHMNEKQVVNNSEDILKKEDEEEENLKKEGGDLLIKGNNVDKVLLDDIDIEKVRSYDKIMDAEERDKLELFDEILIHIKRNFYEKILNIETNFKNLENQIEDNHSFHFRCIIEKLKNRKYDNILYIYNDIYLYHNNLLFLSKPSSYTWMKLHELSTQITNTISDIHHKKYMQKPNRKLYHIDKEEKEKKEKKKEVLKDHEKMEYCINEEEKLAFQLLLSKLNQDTHFELFRKFKNKAVWKTLEGGEIELDDKLTRADVFREMYNWCKFQLEMKNKQSELSDSESDSSKDSY
binding [1]: binds
binding [2]: binds
